Test results: US20030124505
Construct, isoform or probe ends are uncertain for at least one entry.

Amino acid sequences for entries named in this document (tags omitted). Residues count along the entry.
UniProt P0A7G6, 2-353: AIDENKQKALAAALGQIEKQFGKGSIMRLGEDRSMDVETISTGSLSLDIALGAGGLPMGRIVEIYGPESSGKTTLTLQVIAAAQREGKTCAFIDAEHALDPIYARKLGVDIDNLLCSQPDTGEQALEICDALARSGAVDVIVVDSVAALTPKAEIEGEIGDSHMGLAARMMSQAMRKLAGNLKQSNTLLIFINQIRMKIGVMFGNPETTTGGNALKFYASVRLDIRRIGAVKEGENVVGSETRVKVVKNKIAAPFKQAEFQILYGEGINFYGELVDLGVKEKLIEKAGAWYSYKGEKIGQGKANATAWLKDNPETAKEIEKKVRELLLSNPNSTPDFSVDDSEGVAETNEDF

Biological target: RecA recombinase (UniProt P0A7G6)
Assay: binding assay
Details: RecA-mediated capture of mouse Rad51A cDNA, 10% heterology; purified recombinant protein; label: biotin; single-stranded DNA

Sequence: ATTGACACTGAGGGTACCTTTAGGCCAGAACGGCTGCTGGCAGTGGCTGAGAGGTATGGTCTCTCTGGCAGTGATGTCCTGGATAATGTAGCATATGCTCGAGCGTTCAACACAGACCACCAGACCCAGCTCCTTTATCAAGCATCAGCCATGATGGTAGAATCTAGGTATGCACTGCTTATTGTAGACAGTGCCACCGCCCTTTACAGAACAGACTACTCGGGTCGAGGTGAGCTTTCAGCCAGGCAGATGCACTTGGCCAGGTTTCTGCGGATGCTTCTGCGACTCGCTGATGAGTTTGGTGTAGCAGTGGTAATCACTAATCAGGTG [329 bp biotinylated human Rad51A cssDNA probe]
- binding result: binds
